Reference: PubChem BioAssay AID445 (National Center for Advancing Translational Sciences (NCATS), 2006)
Some of the results follow. Further columns of the screen follow, without active or inactive calls. The list favours compounds with an active or inconclusive main result. Potencies come from curve fits of mixed quality, noted in brackets.

Experiment: IkB Signaling
Settings: ABC-DLBCL IkBa-CBG/CBR dual luciferase ratio (green luciferase fused to IkBa over red control in OCI-Ly3 lymphoma cells), 4 h; measured here: control luc red channel unless noted
In short: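 In this assay, an IκBα–CBG68 fusion accumulates when IKK-driven degradation is blocked; native CBR normalizes for cell number. OCI-Ly3 cells were treated 4 h with compound and doxycycline, then green and red light read after Chroma-Glo addition.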

Structure (SMILES): CC(C)c1ccc(S(=O)(=O)c2cnc(SCC(=O)Nc3ccc4c(c3)OCCO4)[nH]c2=O)cc1
- AC50: 6.31 µM [falling, partial curve]

Structure (SMILES): Cc1ccc(OCC(=O)Nc2nnc(S(=O)(=O)N3CCCCCC3)s2)cc1
- AC50: 0.251 µM [rising, full curve]

Structure (SMILES): COc1ccc(CCN(Cc2cc3cccc(C)c3[nH]c2=O)C(=O)N2CCCC2)cc1OC
- AC50: 15.8 µM [falling, single point] [measured here: IkB-luc green channel]

Structure (SMILES): COc1ccc2nc(SCc3nc(N)nc(Nc4ccccc4)n3)[nH]c2c1
- AC50: 12.6 µM [falling, partial curve]

Structure (SMILES): Oc1ccc(NCc2ccccc2OCc2ccc(Cl)cc2)cc1
- AC50: 25.1 µM [falling, partial curve]

Structure (SMILES): COC(=O)c1ccccc1NC(=O)N1CCC(N2CCN(Cc3ccc(F)cc3)C(=O)C2=O)CC1
- AC50: 1 µM [rising, full curve]

Structure (SMILES): Cc1ccc(NC(=O)/C=C\C(=O)N(c2ccc(C(C)C)cc2)C(C(=O)NCc2ccco2)c2ccc(F)cc2)cc1 (configuration not stated)
- AC50: 15.8 µM [falling, partial curve]

Structure (SMILES): COc1ccc2c(Sc3ccc(C)cc3)c(C(=O)NC(C)C)[nH]c2c1
- AC50: 12.6 µM [falling, partial curve]

Structure (SMILES): O=c1oc2ccccc2c(N2CCN(c3ccccc3F)CC2)c1CN1CCCC1
- AC50: 39.8 µM [falling, partial curve]

Structure (SMILES): Cc1cccc(CNC(=O)Cn2ccc3cc(S(=O)(=O)N4CCCCCC4)ccc32)c1
- AC50: 2.51 µM [falling, full curve, poor fit]

Structure (SMILES): CCCCSc1nnc(-c2cc(Br)ccc2N)c(=O)[nH]1
- AC50: 20 µM [falling, partial curve]

Structure (SMILES): CCCc1cc(=O)n2[nH]c(CCc3ccccc3)nc2n1
- AC50: 15.8 µM [falling, partial curve]

Structure (SMILES): CCCc1cc(=O)oc2cc(C)c3c(-c4ccccc4)coc3c12
- AC50: 3.16 µM [rising, full curve, poor fit]

Structure (SMILES): Cc1ccc(NC(=O)CC2Nc3ccccc3NC2=O)cc1C (configuration not stated)
- AC50: 0.316 µM [rising, partial curve]

Structure (SMILES): CCCNC(=O)CN1C(=O)CSc2ccc(S(=O)(=O)N3CCC(C)CC3)cc21
- AC50: 25.1 µM [falling, single point]

Structure (SMILES): CCOc1ccc(NC(=O)c2cc(S(=O)(=O)NC3CCCCCC3)ccc2F)cc1
- AC50: 25.1 µM [falling, partial curve]

Structure (SMILES): Cc1ccccc1-c1noc(-c2ccc(NCc3ccco3)c([N+](=O)[O-])c2)n1
- AC50: 3.16 µM [falling, partial curve]

Structure (SMILES): COc1ccc2c(c1)CCc1c(C(=O)Nc3c(C)nn(Cc4ccccc4)c3C)noc1-2
- AC50: 10 µM [falling, partial curve]

Structure (SMILES): CC(C)(C)NC(=O)c1oc2ccccc2c1NC(=O)c1ccccc1F
- AC50: 15.8 µM [falling, partial curve]

Structure (SMILES): Cc1ccc(S(=O)(=O)Nc2ccc3nc(-c4ccc(F)cc4)oc3c2)cc1
- AC50: 25.1 µM [falling, partial curve]

Structure (SMILES): COc1cc(NC(=O)Cn2c(=O)ccc3cc(S(=O)(=O)N4CCCC4)ccc32)cc(OC)c1
- AC50: 31.6 µM [falling, single point]

Structure (SMILES): Cc1ccc(CNC(=O)c2c(C)oc3ncnc(N4CCOCC4)c23)cc1
- AC50: 20 µM [falling, single point]

Structure (SMILES): COc1ccc(/C=C\c2onc(C)c2S(=O)(=O)N2CCC(C(=O)Nc3cccc(OC)c3)CC2)cc1
- AC50: 6.31 µM [falling, partial curve]

Structure (SMILES): O=C(CSc1ncnc2c1oc1ccccc12)N1CCCc2ccccc21
- AC50: 12.6 µM [falling, partial curve]

Structure (SMILES): Cc1cc(C)c2c(CC(=O)N(Cc3ccc(Cl)cc3)Cc3ccco3)coc2c1
- AC50: 12.6 µM [falling, partial curve]

Structure (SMILES): Cc1c(-c2ccccc2)nc2c(Cl)cccc2c1C(=O)OCC(=O)c1ccc(F)cc1
- AC50: 3.98 µM [falling, full curve]

Structure (SMILES): COc1cc(OC)c(N(C)C(=O)c2c(C)oc3ncn(CC(C)C)c(=O)c23)cc1Cl
- AC50: 7.94 µM [rising, single point]

Structure (SMILES): CCOc1ccccc1C(=O)N(Cc1sccc1C)C1CCS(=O)(=O)C1 (configuration not stated)
- AC50: 20 µM [falling, partial curve, poor fit]

Structure (SMILES): COc1ccc(-c2cc(C(F)(F)F)nc(SCC(=O)NCCc3ccccc3)n2)cc1
- AC50: 15.8 µM [rising, partial curve]

Structure (SMILES): N#Cc1c(-n2ncnc2-c2ccc(F)cc2)sc2c1CCCCC2
- AC50: 0.126 µM [falling, full curve]

Structure (SMILES): O=C(CSCc1cnn(-c2ccccc2)c1-n1cccc1)NCc1cccc(Cl)c1
- AC50: 6.31 µM [rising, single point]

Structure (SMILES): COc1ccc(CC(=O)N2CC3(C)CC2CC(C)(C)C3)cc1OC (configuration not stated)
- AC50: 12.6 µM [falling, partial curve]
